Data published in patent publication US5595730A, “Lactate dehydrogenase inhibitors in cosmetic compositions” (priority 1996, dated 1997).
At least one compound was matched to its structure with a doubt left.

Columns and labels:
[1] = system: Fibroblast Lactate Dehydrogenase; assay: Fibroblast lactate dehydrogenase (LDH) inhibition, cell lysate; type: biochemical, human
Experimental: (§1) All reagents were purchased from Sigma Chemical Co., St. Louis, Mo., USA. Sigma procedure No. 500 was modified for our purposes. One mL of pyruvate (pH=7.5) substrate (Sigma […]-1) was added to a vial containing 1 mg NADH (Sigma 340-101). In a 96-well plate, the following components were added to each test well: 10 μl pyruvate/NADH mixture, and 10 μl cell lysate. For preparation cell lysates, neonatal human keratinocytes or fibroblasts (Clonetic Corp., San Diego, Calif.) were cultured in tissue culture plates (Corning, USA). Cells were scraped in PBS (pH=7.4) and this solution was used as a source of L-lactate dehydrogenase. If such cell lysate was not available, a commercial preparation of L-lactic dehydrogenase (E.C.1.1.1.27), Sigma L9889, from porcine heart could be used in place of the cell lysate. For positive control, the inhibitor was replaced with 10 μl of PBS. For blank determination, the lysate or enzyme was replaced with […]. After mixing, the plate was incubated for 30 minutes at 37° C. Then 20 μl of color reagent (Sigma 505-2) was added to each well. After 20 minutes at room temperature, 150 μl of 0.4N NaOH was added, and the plate was read for absorbance at 490 nm in a Dynatech MR 7000 Microplate Reader. To calculate % inhibition, the control activity (CA) was first determined by subtracting the absorbance of the positive control from the blank. Then the activity in the presence of the inhibitor (IA) was calculated by subtracting the appropriate absorbance from the blank. % Inhibition was then calculated as: ((CA-IA)/CA)*100.

[2] = system: Keratinocyte Lactate Dehydrogenase; assay: Keratinocyte lactate dehydrogenase (LDH) inhibition, cell lysate; type: biochemical, human
Experimental: as §1

| SMILES | Fibroblast Lactate Dehydrogenase Inhibition (% Inhibition) ([1]; 0.625 mM) | Fibroblast Lactate Dehydrogenase Inhibition (% Inhibition) ([1]; 1.25 mM) | Fibroblast Lactate Dehydrogenase Inhibition (% Inhibition) ([1]; 2.5 mM) | Fibroblast Lactate Dehydrogenase Inhibition (% Inhibition) ([1]; 5 mM) | Keratinocyte Lactate Dehydrogenase Inhibition (% Inhibition) ([2]; 0.625 mM) | Keratinocyte Lactate Dehydrogenase Inhibition (% Inhibition) ([2]; 1.25 mM) | Keratinocyte Lactate Dehydrogenase Inhibition (% Inhibition) ([2]; 2.5 mM) | Keratinocyte Lactate Dehydrogenase Inhibition (% Inhibition) ([2]; 5 mM) |
| --- | --- | --- | --- | --- | --- | --- | --- | --- |
| O=C(O)C(=O)C(=O)O [Ketomalonate] | 38% | 60% | 79% | 86% | 22% | 38% | 62% | 79% |
| O=C(O)C(O)C(=O)O [Tartronate] | 2% | 3% | 6% | 18% | 1% | 2% | 3% | 13% |
